Drawing on paper doi:10.1101/2025.08.09.669493, this text covers binding for one substance.

Substitutions are numbered along the chain they refer to. Results are given in words; binding and its absence hold for the method and conditions named. Binding seen in cells or lysates may run through a third protein. Binding can be weak; no strength is given.

Experiment [1] deals with T1, interferon regulatory factor 4 (IRF4), wild type (human) (UniProt Q15306).
T1 sequence: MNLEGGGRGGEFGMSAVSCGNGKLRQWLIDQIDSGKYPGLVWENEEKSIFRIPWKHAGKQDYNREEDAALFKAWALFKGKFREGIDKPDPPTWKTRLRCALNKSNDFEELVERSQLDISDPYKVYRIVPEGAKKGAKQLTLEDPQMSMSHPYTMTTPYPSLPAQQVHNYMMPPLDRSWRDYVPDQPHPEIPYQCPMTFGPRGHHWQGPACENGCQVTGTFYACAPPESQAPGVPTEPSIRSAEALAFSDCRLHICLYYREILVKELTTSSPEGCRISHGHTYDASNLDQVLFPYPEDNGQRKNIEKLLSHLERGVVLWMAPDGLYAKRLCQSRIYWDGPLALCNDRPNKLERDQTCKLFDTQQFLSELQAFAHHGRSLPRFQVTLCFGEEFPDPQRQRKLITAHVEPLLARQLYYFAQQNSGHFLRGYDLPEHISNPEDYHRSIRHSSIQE
As to the kind of experiment: co-IP.

Experiment [2] deals with T2, IRF4^R98A/C99A, IRF-motif-binding-deficient mutant of IRF4 (human) (UniProt Q15306).
T2 sequence: T1 sequence with R98A, C99A
As to the kind of experiment: co-IP.

With “Kaposi's sarcoma-associated herpesvirus (KSHV) vIRF3”, the binding result in experiment [1] and in experiment [2] was “binds” in each case.
